1 compound from article PMC7323874, “Vancomycin Resistance Is Overcome by Conjugation of Polycationic Peptides” (Angewandte Chemie (International Ed. in English), 2020) can be followed below.

One assay deals with E. coli ATCC 25922. Put plainly: microbe, parasite or virus in culture. It is filed as cell-based. To be noted: Escherichia coli, ATCC25922. How it is done:
(§1) Antimicrobial testing – Microdilution
(§2) Antimicrobial testing was performed according to CLSI and EUCAST guidelines in microdilution.8-10 Therefore, all tested substances as well as controls were dissolved in water in different concentrations and serially diluted in MHB II (cation adjusted) on the 96-well plate. A logarithmic growing, overnight culture of the respective bacterial strain was used and adjusted to a McFarland corresponding to 1 × 10^8 cfu/ml. Afterwards the bacterial suspension was diluted to 1 ×10^6 cfu/ml and loaded on the 96-well polypropylene plates, resulting in a final bacterial concentration of 5 × 10^5 cfu/ml. After an incubation at 35 ± 1 °C for 18-20 hours (re-controlled after 24 hours) the MIC was determined as the lowest concentration without visible growth as described previously.11 For direct comparison of the tested substances, all results were calculated in mg/ml and mol/ml afterwards. […]
Resistance development in S. aureus was determined by passaging bacteria in increasing amounts of vancomycin, FU002 or, as control, fusidic acid. In principle, tubes with twofold dilutions of the compounds in 1 ml Muller Hinton broth were inoculated 1:100 with bacterial suspension. […]
(§3) For the validation of possible side effects provoked by the conjugates, the cytotoxic effect of the lead candidate FU002 on human cells was assessed in a colorimetric viability assay. […]

The next assay relates to P. aeruginosa ATCC 27853. Put plainly: microbe, parasite or virus in culture. The assay is classed as cell-based. The following applies: Pseudomonas aeruginosa, ATCC27853. On the procedure:
as §1, §2
As further control substance, the glycopeptide antibiotic teicoplanin was evaluated. […] Resistance development in S. aureus was determined by passaging bacteria in increasing amounts of vancomycin, FU002 or, as control, fusidic acid. […]
as §3

Take `CN[C@H](CC(C)C)C(=O)N[C@H]1C(=O)N[C@@H](CC(N)=O)C(=O)N[C@H]2C(=O)N[C@H]3C(=O)N[C@H](C(=O)N[C@H](C(=O)O)c4cc(O)cc(O)c4-c4cc3ccc4O)[C@H](O)c3ccc(c(Cl)c3)Oc3cc2cc(c3O[C@@H]2O[C@H](CO)[C@@H](O)[C@H](O)[C@H]2O[C@H]2C[C@](C)(N)[C@H](O)[C@H](C)O2)Oc2ccc(cc2Cl)[C@H]1O` [vancomycin]: the MIC in the assay with E. coli ATCC 25922 and with P. aeruginosa ATCC 27853 was not below 640 mg/L each time.
